Assay results reported in publication PMC8573827, “Zinc protoporphyrin binding to telomerase complexes and inhibition of telomerase activity” (Pharmacology Research & Perspectives, 2021).
No constants are given. Whether binding was seen depends on the method and setting. Some binding calls cover weakened binding; strength is not graded here.

Chains of the proteins cited; added tags and fusions are not shown.
UniProt O14746: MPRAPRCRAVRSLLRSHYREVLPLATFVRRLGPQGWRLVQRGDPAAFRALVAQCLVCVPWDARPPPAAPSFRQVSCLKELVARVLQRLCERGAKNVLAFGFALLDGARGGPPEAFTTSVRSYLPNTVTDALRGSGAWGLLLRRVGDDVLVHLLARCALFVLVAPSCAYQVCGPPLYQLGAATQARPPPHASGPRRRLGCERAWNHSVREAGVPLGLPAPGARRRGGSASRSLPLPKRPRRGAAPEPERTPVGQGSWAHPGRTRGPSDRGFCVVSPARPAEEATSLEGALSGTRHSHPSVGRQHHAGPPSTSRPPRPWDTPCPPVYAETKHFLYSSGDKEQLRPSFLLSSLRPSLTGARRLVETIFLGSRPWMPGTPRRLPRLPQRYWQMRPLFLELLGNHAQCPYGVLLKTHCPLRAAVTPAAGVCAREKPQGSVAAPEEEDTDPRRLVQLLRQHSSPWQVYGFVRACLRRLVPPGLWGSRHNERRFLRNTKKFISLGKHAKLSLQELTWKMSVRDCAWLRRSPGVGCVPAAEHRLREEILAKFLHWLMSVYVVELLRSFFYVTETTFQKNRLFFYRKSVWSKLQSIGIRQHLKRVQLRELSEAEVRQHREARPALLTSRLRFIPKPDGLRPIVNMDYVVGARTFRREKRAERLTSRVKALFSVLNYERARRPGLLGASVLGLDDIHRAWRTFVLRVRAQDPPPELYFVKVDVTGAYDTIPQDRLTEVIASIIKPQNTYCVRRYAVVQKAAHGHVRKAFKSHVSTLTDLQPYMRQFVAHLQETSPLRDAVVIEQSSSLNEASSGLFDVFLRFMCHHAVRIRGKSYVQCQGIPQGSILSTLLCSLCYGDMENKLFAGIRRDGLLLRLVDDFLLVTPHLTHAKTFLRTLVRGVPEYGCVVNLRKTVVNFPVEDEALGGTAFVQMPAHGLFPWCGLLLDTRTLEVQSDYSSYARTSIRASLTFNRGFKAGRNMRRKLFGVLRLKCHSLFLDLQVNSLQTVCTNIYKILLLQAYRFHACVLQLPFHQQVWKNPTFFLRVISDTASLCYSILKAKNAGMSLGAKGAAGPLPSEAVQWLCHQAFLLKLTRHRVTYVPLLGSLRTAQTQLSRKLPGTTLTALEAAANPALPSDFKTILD

Target: telomerase reverse transcriptase (human (endogenous in Huh7)) (UniProt O14746)
Assay: native gel or EMSA; Huh7 lysate incubated 1 h at RT with 10 µM ZnPP or vehicle, run on non-denaturing 0.8% agarose gel (0.5x TBE), diffusion-blotted onto nitrocellulose and stained with anti-TERT or anti-dyskerin antibodies

B1: dyskerin (protein, UniProt O60832 1-514)
chain: MADAEVIILPKKHKKKKERKSLPEEDVAEIQHAEEFLIKPESKVAKLDTSQWPLLLKNFDKLNVRTTHYTPLACGSNPLKREIGDYIRTGFINLDKPSNPSSHEVVAWIRRILRVEKTGHSGTLDPKVTGCLIVCIERATRLVKSQQSAGKEYVGIVRLHNAIEGGTQLSRALETLTGALFQRPPLIAAVKRQLRVRTIYESKMIEYDPERRLGIFWVSCEAGTYIRTLCVHLGLLLGVGGQMQELRRVRSGVMSEKDHMVTMHDVLDAQWLYDNHKDESYLRRVVYPLEKLLTSHKRLVMKDSAVNAICYGAKIMLPGVLRYEDGIEVNQEIVVITTKGEAICMAIALMTTAVISTCDHGIVAKIKRVIMERDTYPRKWGLGPKASQKKLMIKQGLLDKHGKPTDSTPATWKQEYVDYSESAKKEVVAEVVKAPQVVAEAAKTAKRKRESESESDETPPAAPQLIKKEKKKSKKDKKAKAGLESGAEPGDGDSDTTKKKKKKKKAKEVELVSE
For B1, the binding was “binds”.
